In the experiment the target is PorA subunit of the pyruvate ferredoxin oxidoreductase from Thermococcus guaymasensis (Thermococcus guaymasensis (endogenous in DSM 11113)). The experiment can be described thus: SEC; native enzyme purified from T. guaymasensis (about 1 mg) on HiLoad Superdex-200 in buffer E (50 mM Tris pH 7.8, 5% glycerol, 100 mM KCl, 2 mM DTT, 2 mM SDT), 2.5 mL/min, calibrated with protein standards; SDS-PAGE of the enzyme after the column; apparent Mr 258,000; both purified. A general note: Size exclusion chromatography separates by hydrodynamic size, large species first.

These are yes or no findings as the source states them, for the method shown. A result given as binding can be weak or reduced; the word gives no strength.

B1: PorD subunit of the pyruvate ferredoxin oxidoreductase from Thermococcus guaymasensis (protein, UniProt W8CR61 1-105)
chain: MAESPFKADIERVQKEYSEKMTPGAIAYIPGSSVINKTGSWRVFMPEFNREKCTRCYLCYIYCPEPAIYLDEEGYPVFDYDYCKGCGVCANECPVGAIVMVRETK
For B1, the binding result is “binds”.

Source of the values: paper PMC4058850, “The Bifunctional Pyruvate Decarboxylase/Pyruvate Ferredoxin Oxidoreductase from Thermococcus guaymasensis” (Archaea, 2014).
